# According to the supplement of paper PMC11006884:
# Protein sequences, listed by entry. Tags and fused reporters are not part of them. Lines headed by an entry give the natural chain unless they say otherwise; changes in a name come on top.
# UniProt Q12888: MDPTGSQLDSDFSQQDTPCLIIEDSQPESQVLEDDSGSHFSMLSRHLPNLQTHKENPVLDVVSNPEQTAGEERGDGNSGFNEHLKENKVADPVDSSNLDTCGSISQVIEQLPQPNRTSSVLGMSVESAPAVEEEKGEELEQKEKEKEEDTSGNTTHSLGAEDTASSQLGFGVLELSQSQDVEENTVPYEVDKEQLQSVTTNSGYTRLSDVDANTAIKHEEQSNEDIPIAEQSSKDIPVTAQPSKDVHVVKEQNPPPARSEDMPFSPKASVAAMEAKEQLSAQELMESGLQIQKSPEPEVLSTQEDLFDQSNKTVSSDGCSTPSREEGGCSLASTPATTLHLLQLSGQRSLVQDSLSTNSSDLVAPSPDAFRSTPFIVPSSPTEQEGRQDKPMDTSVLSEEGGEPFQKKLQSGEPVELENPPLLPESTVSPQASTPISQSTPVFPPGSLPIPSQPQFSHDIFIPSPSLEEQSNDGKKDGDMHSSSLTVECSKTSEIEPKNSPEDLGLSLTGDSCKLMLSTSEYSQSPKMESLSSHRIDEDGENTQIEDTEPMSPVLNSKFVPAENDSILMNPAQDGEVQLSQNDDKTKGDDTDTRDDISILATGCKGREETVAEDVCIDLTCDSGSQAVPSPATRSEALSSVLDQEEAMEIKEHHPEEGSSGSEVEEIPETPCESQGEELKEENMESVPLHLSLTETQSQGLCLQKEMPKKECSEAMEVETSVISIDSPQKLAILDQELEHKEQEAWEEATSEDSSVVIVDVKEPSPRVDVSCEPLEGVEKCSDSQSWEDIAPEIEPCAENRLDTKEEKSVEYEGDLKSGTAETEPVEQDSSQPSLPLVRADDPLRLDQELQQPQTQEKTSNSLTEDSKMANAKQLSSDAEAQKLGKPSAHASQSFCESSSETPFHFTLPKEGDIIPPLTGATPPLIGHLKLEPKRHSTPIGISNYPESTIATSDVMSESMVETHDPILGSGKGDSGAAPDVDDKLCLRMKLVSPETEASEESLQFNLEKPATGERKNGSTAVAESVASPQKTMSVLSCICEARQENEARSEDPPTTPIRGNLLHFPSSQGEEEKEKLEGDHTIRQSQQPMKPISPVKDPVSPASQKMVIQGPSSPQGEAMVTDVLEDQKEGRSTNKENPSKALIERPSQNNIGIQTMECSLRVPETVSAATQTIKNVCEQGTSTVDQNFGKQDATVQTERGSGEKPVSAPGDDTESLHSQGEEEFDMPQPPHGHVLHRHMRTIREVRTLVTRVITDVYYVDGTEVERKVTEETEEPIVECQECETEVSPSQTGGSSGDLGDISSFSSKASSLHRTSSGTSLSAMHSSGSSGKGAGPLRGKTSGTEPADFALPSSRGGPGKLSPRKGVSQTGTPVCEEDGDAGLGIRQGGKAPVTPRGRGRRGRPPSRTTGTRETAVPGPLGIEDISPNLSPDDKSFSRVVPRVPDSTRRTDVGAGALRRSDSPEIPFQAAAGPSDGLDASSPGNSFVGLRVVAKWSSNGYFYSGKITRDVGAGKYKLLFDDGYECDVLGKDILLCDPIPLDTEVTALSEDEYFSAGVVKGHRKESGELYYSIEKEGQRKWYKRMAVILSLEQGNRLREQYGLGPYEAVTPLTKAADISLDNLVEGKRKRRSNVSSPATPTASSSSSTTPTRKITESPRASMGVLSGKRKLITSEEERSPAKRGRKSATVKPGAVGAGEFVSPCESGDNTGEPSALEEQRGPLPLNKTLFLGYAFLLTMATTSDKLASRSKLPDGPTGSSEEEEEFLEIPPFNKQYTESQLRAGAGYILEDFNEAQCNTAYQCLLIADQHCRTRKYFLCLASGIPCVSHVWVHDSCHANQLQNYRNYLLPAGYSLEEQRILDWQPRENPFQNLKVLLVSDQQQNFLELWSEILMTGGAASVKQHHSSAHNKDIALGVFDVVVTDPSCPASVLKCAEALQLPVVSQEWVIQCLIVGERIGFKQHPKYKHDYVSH
# UniProt Q08J23, whole entry, looked up: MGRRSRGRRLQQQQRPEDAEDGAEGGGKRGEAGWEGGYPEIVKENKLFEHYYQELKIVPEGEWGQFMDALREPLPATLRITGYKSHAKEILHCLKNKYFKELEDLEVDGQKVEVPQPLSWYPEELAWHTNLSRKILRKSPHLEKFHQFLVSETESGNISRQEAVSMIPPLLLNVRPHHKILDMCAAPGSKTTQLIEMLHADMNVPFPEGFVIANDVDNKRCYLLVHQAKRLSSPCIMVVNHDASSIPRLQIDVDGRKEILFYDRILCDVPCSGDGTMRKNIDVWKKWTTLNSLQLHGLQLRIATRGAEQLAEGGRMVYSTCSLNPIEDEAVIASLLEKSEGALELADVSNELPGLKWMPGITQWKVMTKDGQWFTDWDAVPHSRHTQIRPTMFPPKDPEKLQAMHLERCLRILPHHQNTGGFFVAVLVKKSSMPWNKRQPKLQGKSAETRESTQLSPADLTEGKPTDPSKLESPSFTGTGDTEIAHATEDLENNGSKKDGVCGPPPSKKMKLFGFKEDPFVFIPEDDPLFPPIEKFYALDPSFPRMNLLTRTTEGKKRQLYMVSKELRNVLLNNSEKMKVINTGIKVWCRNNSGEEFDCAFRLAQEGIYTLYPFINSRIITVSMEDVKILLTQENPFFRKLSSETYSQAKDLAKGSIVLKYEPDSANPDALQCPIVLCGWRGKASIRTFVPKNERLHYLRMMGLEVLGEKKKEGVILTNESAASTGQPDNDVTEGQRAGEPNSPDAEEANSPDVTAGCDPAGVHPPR
# UniProt Q13464: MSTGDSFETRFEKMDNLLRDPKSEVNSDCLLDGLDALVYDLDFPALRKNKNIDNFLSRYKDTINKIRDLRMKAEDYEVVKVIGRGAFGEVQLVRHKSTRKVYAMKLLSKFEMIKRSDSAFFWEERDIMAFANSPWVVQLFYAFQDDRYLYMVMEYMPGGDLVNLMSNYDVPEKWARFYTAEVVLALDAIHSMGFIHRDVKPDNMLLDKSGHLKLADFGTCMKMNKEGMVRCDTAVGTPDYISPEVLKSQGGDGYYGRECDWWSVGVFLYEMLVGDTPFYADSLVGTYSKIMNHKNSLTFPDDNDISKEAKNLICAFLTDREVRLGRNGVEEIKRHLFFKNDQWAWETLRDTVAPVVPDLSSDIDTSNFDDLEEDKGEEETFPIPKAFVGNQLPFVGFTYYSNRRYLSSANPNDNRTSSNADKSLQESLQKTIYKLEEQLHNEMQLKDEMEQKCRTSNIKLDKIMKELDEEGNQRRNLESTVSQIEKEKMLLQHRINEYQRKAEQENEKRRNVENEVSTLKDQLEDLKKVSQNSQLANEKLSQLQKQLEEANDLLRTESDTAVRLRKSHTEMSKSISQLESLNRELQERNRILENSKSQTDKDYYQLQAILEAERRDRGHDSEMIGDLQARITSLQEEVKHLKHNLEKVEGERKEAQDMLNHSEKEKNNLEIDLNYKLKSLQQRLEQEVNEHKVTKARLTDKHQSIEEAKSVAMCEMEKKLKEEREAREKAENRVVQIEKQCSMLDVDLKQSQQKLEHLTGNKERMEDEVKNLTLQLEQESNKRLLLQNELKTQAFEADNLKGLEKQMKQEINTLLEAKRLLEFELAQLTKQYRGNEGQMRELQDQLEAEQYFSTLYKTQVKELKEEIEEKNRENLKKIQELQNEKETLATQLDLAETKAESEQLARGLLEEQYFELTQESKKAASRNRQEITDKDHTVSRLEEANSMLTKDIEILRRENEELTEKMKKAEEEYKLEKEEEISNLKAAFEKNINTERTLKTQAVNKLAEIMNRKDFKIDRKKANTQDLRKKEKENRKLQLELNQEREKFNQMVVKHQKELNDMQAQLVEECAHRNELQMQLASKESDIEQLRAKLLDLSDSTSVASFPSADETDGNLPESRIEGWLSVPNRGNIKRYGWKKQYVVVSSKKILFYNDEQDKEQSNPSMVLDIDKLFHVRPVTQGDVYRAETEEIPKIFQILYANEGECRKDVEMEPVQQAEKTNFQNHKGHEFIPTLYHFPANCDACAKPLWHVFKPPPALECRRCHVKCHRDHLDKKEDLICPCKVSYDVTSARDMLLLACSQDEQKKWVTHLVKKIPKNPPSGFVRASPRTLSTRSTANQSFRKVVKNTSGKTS
# UniProt Q13263: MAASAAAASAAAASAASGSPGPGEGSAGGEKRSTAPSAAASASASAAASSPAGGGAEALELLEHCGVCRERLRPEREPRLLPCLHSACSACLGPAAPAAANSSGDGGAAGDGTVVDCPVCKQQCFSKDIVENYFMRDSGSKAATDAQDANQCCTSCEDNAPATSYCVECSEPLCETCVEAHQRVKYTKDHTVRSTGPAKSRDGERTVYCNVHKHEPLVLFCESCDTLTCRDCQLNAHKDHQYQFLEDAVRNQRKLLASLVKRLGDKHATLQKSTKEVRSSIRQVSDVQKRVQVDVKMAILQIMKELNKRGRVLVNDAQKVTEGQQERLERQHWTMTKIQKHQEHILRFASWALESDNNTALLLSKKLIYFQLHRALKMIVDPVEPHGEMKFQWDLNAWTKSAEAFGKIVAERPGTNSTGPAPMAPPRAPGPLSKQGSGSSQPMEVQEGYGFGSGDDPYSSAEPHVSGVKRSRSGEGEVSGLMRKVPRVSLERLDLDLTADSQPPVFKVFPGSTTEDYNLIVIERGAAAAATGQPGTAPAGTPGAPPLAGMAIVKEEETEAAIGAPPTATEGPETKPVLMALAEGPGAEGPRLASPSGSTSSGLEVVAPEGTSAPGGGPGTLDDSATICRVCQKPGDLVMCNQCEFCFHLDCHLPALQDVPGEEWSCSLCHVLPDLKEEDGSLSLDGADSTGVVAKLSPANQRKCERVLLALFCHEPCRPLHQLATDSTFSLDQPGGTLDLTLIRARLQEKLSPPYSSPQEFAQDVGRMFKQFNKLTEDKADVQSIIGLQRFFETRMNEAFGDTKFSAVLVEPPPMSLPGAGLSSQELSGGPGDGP
# UniProt Q07955, whole entry, looked up: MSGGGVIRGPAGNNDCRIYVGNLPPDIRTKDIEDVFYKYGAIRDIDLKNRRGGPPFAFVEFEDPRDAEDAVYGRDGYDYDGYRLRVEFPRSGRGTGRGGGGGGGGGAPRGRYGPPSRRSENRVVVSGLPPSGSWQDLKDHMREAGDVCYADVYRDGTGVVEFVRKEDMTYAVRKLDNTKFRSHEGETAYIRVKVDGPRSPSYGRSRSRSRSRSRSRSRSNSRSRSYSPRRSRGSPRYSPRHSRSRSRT
# UniProt Q08211, whole entry, looked up: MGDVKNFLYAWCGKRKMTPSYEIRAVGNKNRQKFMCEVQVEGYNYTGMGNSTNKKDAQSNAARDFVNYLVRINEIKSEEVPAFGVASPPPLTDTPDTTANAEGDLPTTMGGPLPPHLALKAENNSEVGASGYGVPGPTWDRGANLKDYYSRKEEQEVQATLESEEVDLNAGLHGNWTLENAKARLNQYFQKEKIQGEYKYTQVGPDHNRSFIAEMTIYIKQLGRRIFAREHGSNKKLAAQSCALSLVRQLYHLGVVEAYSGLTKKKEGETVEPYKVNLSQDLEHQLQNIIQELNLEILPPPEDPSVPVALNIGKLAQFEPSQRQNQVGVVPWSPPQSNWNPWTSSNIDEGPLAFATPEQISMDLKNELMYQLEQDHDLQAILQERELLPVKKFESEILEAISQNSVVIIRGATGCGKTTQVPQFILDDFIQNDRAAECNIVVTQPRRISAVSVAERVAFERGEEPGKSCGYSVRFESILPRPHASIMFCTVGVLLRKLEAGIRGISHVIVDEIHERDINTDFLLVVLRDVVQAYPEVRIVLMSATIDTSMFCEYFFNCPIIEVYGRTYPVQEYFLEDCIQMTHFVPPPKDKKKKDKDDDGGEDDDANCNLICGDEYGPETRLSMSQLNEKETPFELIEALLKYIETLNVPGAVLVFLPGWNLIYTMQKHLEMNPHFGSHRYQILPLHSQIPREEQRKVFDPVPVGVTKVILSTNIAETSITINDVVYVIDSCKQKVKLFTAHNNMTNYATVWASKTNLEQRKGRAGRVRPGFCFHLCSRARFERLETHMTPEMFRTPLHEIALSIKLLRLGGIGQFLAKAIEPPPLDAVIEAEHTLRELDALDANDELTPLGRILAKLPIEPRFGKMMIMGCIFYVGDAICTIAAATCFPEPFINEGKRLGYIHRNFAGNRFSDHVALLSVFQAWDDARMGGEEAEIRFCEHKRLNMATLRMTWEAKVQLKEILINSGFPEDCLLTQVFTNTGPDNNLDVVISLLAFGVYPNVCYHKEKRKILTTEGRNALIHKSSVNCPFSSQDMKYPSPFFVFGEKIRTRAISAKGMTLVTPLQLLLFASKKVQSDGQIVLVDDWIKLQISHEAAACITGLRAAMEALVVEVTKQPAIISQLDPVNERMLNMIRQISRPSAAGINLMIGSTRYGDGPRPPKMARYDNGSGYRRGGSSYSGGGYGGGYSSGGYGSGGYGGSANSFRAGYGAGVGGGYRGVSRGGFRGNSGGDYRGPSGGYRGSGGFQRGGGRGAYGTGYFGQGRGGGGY
# Shown are results outside the selection of targets with a hit, which stands elsewhere. Single values of this set are uncertain. Only a part is listed here, and it is no random draw.
# Compound: COC(=O)/C=C/c1ccccc1 [methyl cinnamate]
# Test: log2 ratio of iodoacetamide-alkyne labeling of the cysteine site, DMSO over compound (competition); higher = stronger covalent engagement of the cysteine by the compound, active = 1 or more
# Settings: 500 µM; treatment time 1 h; system: HEK293T cell lysate
# In short: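 HEK293T lysate (2 mg/mL) was incubated with electrophile (500 µM) or vehicle for 1 h at ambient temperature and then with iodoacetamide alkyne for 1 h. Labelled proteins were clicked to sCIP-TMT reagents, pooled, digested, enriched on streptavidin and measured by Orbitrap Eclipse LC-MS/MS with FAIMS, with FragPipe quantification. The per-cysteine log2 competition ratio is mean control-channel reporter intensity over mean compound-channel reporter intensity. Across three replicates with duplicate channels, cysteines quantified in only one replicate were excluded.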
row,Target,log2 ratio of iodoacetamide-alkyne labeling
1,TP53BP1 C1703 (UniProt Q12888),inactive: 0.31
2,NSUN2 C758 (UniProt Q08J23),inactive: 0.183
3,ROCK1 C1300 (UniProt Q13464),inactive: 0.0352
4,RPL18 C134 (UniProt Q07020),inactive: 0.0996
5,PPIG C310 (UniProt Q13427),inactive: 0.238
6,TRIM28 C68 (UniProt Q13263),inactive: -0.0258
7,NME3 C158 (UniProt Q13232),inactive: 0.0108
8,C1QBP C186 (UniProt Q07021),inactive: 0.168
9,ILK C346 (UniProt Q13418),inactive: 0.184
10,PPAT C100 (UniProt Q06203),inactive: 0.216
11,UniProt Q07955_C148,inactive: 0.0606
12,GTF3C1 C2046 (UniProt Q12789),inactive: -0.0436
13,CBX3 C177 (UniProt Q13185),inactive: 0.144
14,GFPT1 C2 (UniProt Q06210),inactive: 0.114
15,AKAP12 C1521 (UniProt Q02952),inactive: 0.357
16,DLX2 C230 (UniProt Q07687),inactive: 0.127
17,PDCL C35 (UniProt Q13371),inactive: 0.0618
18,DHX9 C469 (UniProt Q08211),inactive: 0.22
19,NCBP1 C616 (UniProt Q09161),inactive: -0.107

# Seven consecutive records from above, quoted:
row,Target,log2 ratio of iodoacetamide-alkyne labeling
1,TP53BP1 C1703 (UniProt Q12888),inactive: 0.31
2,NSUN2 C758 (UniProt Q08J23),inactive: 0.183
3,ROCK1 C1300 (UniProt Q13464),inactive: 0.0352
4,RPL18 C134 (UniProt Q07020),inactive: 0.0996
5,PPIG C310 (UniProt Q13427),inactive: 0.238
6,TRIM28 C68 (UniProt Q13263),inactive: -0.0258
7,NME3 C158 (UniProt Q13232),inactive: 0.0108

# Additional records follow.

row,Target,log2 ratio of iodoacetamide-alkyne labeling
1,SF3A3 C103 (UniProt Q12874),inactive: 0.145
2,NSUN2 C678 (UniProt Q08J23),inactive: 0.0493
3,GTF3C1 C431 (UniProt Q12789),inactive: 0.164
4,COASY C144 (UniProt Q13057),inactive: 0.134
5,CHAF1A C202 (UniProt Q13111),inactive: 0.288
6,EIF4G1 C821 (UniProt Q04637),inactive: -0.0719
7,NCBP1 C36 (UniProt Q09161),inactive: 0.176
8,DST C5527 (UniProt Q03001),inactive: 0.176
9,CEBPZ C411 (UniProt Q03701),inactive: 0.154
10,TP53BP1 C1375 (UniProt Q12888),inactive: 0.333
11,UniProt Q02750_C376,inactive: 0.1
12,AKAP12 C470 (UniProt Q02952),inactive: 0.17
13,RLF C1055 (UniProt Q13129),inactive: 0.496
14,CHAF1A C79 (UniProt Q13111),inactive: -0.0967
15,GAB1 C8 (UniProt Q13480),inactive: 0.161
16,RPL6 C44 (UniProt Q02878),inactive: 0.397
17,ROCK1 C1206 (UniProt Q13464),inactive: 0.327
18,FLII C46 (UniProt Q13045),inactive: 0.0684
